This passage reports binding results from paper PMC3599065.

No constants are given. Whether binding was seen depends on the method and setting. In cells and extracts the contact can be indirect. A yes stands for co-enrichment or nearness to the bait. Other partners may have been found.

The assay has as its target T1, TAP-JIP1 (in Neuro2a) (mouse) (UniProt Q9WVI9).
T1 sequence: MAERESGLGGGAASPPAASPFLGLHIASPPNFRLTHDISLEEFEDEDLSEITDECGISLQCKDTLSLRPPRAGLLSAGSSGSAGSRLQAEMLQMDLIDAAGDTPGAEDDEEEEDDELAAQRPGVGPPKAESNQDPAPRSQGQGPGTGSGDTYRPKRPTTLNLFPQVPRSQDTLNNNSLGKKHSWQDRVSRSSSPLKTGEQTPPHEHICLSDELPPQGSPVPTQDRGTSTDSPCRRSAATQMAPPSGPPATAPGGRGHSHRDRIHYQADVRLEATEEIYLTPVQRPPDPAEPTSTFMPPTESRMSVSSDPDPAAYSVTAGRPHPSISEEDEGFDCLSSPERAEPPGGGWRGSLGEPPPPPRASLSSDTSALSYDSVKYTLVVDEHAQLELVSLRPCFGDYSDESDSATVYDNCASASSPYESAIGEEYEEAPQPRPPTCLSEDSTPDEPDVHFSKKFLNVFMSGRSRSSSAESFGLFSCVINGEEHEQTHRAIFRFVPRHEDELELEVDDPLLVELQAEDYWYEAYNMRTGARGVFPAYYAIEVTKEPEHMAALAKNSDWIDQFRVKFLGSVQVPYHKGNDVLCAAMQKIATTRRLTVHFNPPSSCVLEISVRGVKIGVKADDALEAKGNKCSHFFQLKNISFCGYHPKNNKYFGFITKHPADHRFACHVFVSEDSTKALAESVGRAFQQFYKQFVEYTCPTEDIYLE
The assay can be described thus: affinity purification with mass spectrometry; TAP-JIP1 expressed in Neuro2a cells (retinoic acid), collected on streptavidin sepharose, SDS-PAGE, the ~180 kDa band digested with trypsin and analysed by MALDI TOF/TOF.

B1: JIP3 (endogenous, Neuro2a) (protein, UniProt Q9ESN9 1-1337)
chain: MMEIQMDEGGGVVVYQDDYCSGSVMSERVSGLAGSIYREFERLIHCYDEEVVKELMPLVVNVLENLDSVLSENQEHEVELELLREDNEQLLTQYEREKALRKQAEEKFIEFEDALEQEKKELQIQVEHYEFQTRQLELKAKNYADQISRLEERESEMKKEYNALHQRHTEMIQTYVEHIERSKMQQVGGSGQTESSLPGRSRKERPTSLNVFPLADGMVRAQMGGKLVPAGDHWHLSDLGQLQSSSSYQCPNDEMSESGQSSAAATPSTTGTKSNTPTSSVPSAAVTPLNESLQPLGDYVSVTKNNKQAREKRNSRNMEVQVTQEMRNVSIGMGSSDEWSDVQDIIDSTPELDVCPETRLERTGSSPTQGIVNKAFGINTDSLYHELSTAGSEVIGDVDEGADLLGEFSVRDDFFGMGKEVGNLLLENSQLLETKNALNVVKNDLIAKVDQLSGEQEVLKGELEAAKQAKVKLENRIKELEEELKRVKSEAVTARREPREEVEDVSSYLCTELDKIPMAQRRRFTRVEMARVLMERNQYKERLMELQEAVRWTEMIRASREHPSVQEKKKSTIWQFFSRLFSSSSSPPPAKRSYPSVNIHYKSPTAAGFSQRRSHALCQISAGSRPLEFFPDDDCTSSARREQKREQYRQVREHVRNDDGRLQACGWSLPAKYKQLSPNGGQEDTRMKNVPVPVYCRPLVEKDPSTKLWCAAGVNLSGWKPHEEDSSNGPKPVPGRDPLTCDREGEGEPKSTHPSPEKKKAKETPEADATSSRVWILTSTLTTSKVVIIDANQPGTIVDQFTVCNAHVLCISSIPAASDSDYPPGEMFLDSDVNPEDSGADGVLAGITLVGCATRCNVPRSNCSSRGDTPVLDKGQGDVATTANGKVNPSQSTEEATEATEVPDPGPSESEATTVRPGPLTEHVFTDPAPTPSSSTQPASENGSESNGTIVQPQVEPSGELSTTTSSAAPTMWLGAQNGWLYVHSAVANWKKCLHSIKLKDSVLSLVHVKGRVLVALADGTLAIFHRGEDGQWDLSNYHLMDLGHPHHSIRCMAVVNDRVWCGYKNKVHVIQPKTMQIEKSFDAHPRRESQVRQLAWIGDGVWVSIRLDSTLRLYHAHTHQHLQDVDIEPYVSKMLGTGKLGFSFVRITALLIAGNRLWVGTGNGVVISIPLTETVVLHRGQLLGLRANKTSPTSGEGTRPGGIIHVYGDDSSDKAASSFIPYCSMAQAQLCFHGHRDAVKFFVSVPGNVLATLNGSVLDSPSEGPGPAAPAADAEGQKLKNALVLSGGEGYIDFRIGDGEDDETEECAGDVNQTKPSLSKAERSHIIVWQVSYTPE
For B1, the binding result is “binds”.
